Drawing on article PMC7819943, “Rice protein-binding microarrays: a tool to detect cis-acting elements near promoter regions in rice”, this text covers binding signal for 54 sequences.

The list shows a part of the results.

This assay has as its target T1, OsSMF1 (Oryza sativa, UniProt Q6ZLB0 1-436).
T1 sequence: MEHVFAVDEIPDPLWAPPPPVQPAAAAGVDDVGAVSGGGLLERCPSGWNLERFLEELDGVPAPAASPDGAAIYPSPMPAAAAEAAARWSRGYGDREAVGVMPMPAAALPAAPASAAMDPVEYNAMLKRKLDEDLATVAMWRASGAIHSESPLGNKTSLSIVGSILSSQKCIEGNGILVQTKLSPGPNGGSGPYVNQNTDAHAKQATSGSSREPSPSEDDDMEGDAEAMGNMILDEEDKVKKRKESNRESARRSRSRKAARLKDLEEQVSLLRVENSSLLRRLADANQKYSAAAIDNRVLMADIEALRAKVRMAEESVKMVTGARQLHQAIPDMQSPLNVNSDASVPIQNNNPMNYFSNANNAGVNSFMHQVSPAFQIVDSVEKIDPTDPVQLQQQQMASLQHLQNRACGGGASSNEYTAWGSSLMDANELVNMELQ
The assay can be described thus: protein-binding microarray (RPBM); PBS, 2% BSA, 51.3 ng/ul salmon testes DNA, 50 uM zinc acetate, 200 nM TF, 25 C, 1 h; high values mean tight binding. The settings on record: protein: recombinant; tags: N-terminal polyhistidine and DsRed monomer fusion (pET32a); chain copies: 2; label: CyDye5-dUTP incorporated in the synthesized complementary strand; 3' TTTTT single-stranded linker to array surface; dsDNA, one strand shown. The essentials:
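Transcription factors were each fused at the N-terminus to a polyhistidine tag plus DsRed and expressed in E. coli BL21-CodonPlus before Ni–NTA purification. Binding to a double-stranded custom Agilent array was carried out with 200 nM protein at 25 °C for 1 h in PBS, 2% BSA, salmon testes DNA and 50 µM zinc acetate. The binding signal is per-feature fluorescence intensity, in arbitrary units, on an Axon 4000B scanner.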
On to “CCGCACCAGCGCGCTCGTGCGCGCGGAGCTGGACGCGCTCCGGAGTCACCTAGTGCAG”, for which the binding signal is 3320 fluorescence intensity (a.u.). As for “TCCAGATCAAATCCGACGGCCCAGGATACGCCACGTCACCCGGAGTCACCTAGTGCAG”, the binding signal was 46700 fluorescence intensity (a.u.).

“TTGTTTTATTAAATTCTTGCTAACACTACGTGTCATGCTGCGGAGTCACCTAGTGCAG”: the binding signal was 8200 fluorescence intensity (a.u.). As for “AACTTTCTGCCATCCTGCCTTCCCAGATCACAAATTCACACGGAGTCACCTAGTGCAG”, the binding signal is 8410 fluorescence intensity (a.u.). To “CTCAACTGCTATGTCACCAATGCCTACATCCGCATTGACACGGAGTCACCTAGTGCAG” belongs 4640 fluorescence intensity (a.u.); to “GATTTCTGTTTATTCCGATCTGTTAGACTGCTAGTCCCTACGGAGTCACCTAGTGCAG”, 3730 fluorescence intensity (a.u.); to “GCGCGACGCCAGCGTCGCCGTCGTGCGTGGCGTGACGCCGCGGAGTCACCTAGTGCAG”, 4096 fluorescence intensity (a.u.). To “TGTCCGCGCCACGTGGCAGGCGGCCGCTCATCCGTCGTGCCGGAGTCACCTAGTGCAG” belongs 26000 fluorescence intensity (a.u.); to “CTCCTTCTGCTGTACACCTCGCGCAACTACTCCCTCCGTCCGGAGTCACCTAGTGCAG”, 3490 fluorescence intensity (a.u.); to “GCCTCGTTTGATTGGTCACATGCATGGAAAGAGACTCACACGGAGTCACCTAGTGCAG”, 16700 fluorescence intensity (a.u.). To “ATATTGTTGAATTGAGTAGTATCGTGTCATCGTTGAAAGGCGGAGTCACCTAGTGCAG” belongs 21500 fluorescence intensity (a.u.). For “GTGTTGTCAACTCGTCACCCTTCTCCGCGTGCACGCTTTCCGGAGTCACCTAGTGCAG”, the binding signal is 5040 fluorescence intensity (a.u.).

With “TCTCTCTCGTAACTTCTCTCCTCCACCTCATCATATAATCCGGAGTCACCTAGTGCAG”, the binding signal is 5460 fluorescence intensity (a.u.). To “TGTTCGTAGCAGTCGCTACGTCATTAGCTTCAACCGTTTTCGGAGTCACCTAGTGCAG” belongs 11000 fluorescence intensity (a.u.). The result for “TATATATATATATATATATAGATTTATTGACATCTATATGCGGAGTCACCTAGTGCAG” reads 3660 fluorescence intensity (a.u.); that for “CACCGAGCCTTCACGCGACGGCGGAAGAGATGACCGGCGGCGGAGTCACCTAGTGCAG”, 5500 fluorescence intensity (a.u.); that for “ACAATGTGAGACGCACTTGATAGTGAAAGTGAGGTGGCAACGGAGTCACCTAGTGCAG”, 6950 fluorescence intensity (a.u.). As for “AATCACAACTTTGCTTTCATCCACGTCGACAACATATACACGGAGTCACCTAGTGCAG”, the binding signal was 12500 fluorescence intensity (a.u.). The result for “CTAGAGGCGCTCTCCCATGCCACGTCATACGGCTGGCCCCCGGAGTCACCTAGTGCAG” reads 32200 fluorescence intensity (a.u.); that for “TTGTCAAAATCACCGACACGTACCAACCAGCTGGAGTATTCGGAGTCACCTAGTGCAG”, 4080 fluorescence intensity (a.u.); that for “AGAGAGAGAAAGATGGGAACGAGAACACCGAGGACCACATCGGAGTCACCTAGTGCAG”, 12300 fluorescence intensity (a.u.). The result for “AAGGAATTTTCTCCAATTGTTTATACGCTTGAAAGTGTTTCGGAGTCACCTAGTGCAG” reads 3590 fluorescence intensity (a.u.). The result for “GCCTTCATGACGAAGATGTTAGATGACATTACTCGTCAGACGGAGTCACCTAGTGCAG” reads 3320 fluorescence intensity (a.u.); that for “TTCCATCCAGAGTGCGTCACGAACGCGCCAGTCGCCCGGTCGGAGTCACCTAGTGCAG”, 3990 fluorescence intensity (a.u.).

In the case of “TGACCGGCTCACCGGCGGAAGCGCGGCAGCGGCGCGGCCTCGGAGTCACCTAGTGCAG”, the binding signal was 3440 fluorescence intensity (a.u.).

For “CTTGGTCTGGGGCTCGGGGATGTGGCGGCGGGCCGGCGGCCGGAGTCACCTAGTGCAG”, the binding signal is 4040 fluorescence intensity (a.u.). With “CCGGGATTTTATCTGGTTTACGACGCATGGGCCAACTCACCGGAGTCACCTAGTGCAG”, the binding signal was 35900 fluorescence intensity (a.u.). The result for “ACATCCGTCGCTTCGTCATATCAGACTCCCCACCCTGGAACGGAGTCACCTAGTGCAG” reads 3430 fluorescence intensity (a.u.); that for “CGATTTAAATACTTGACGGGGAGGGGATGATATACCCTTTCGGAGTCACCTAGTGCAG”, 3150 fluorescence intensity (a.u.); that for “GGCGCGTGACGACGGATGCTGCAGCGGCGCGGACGTCACCCGGAGTCACCTAGTGCAG”, 18900 fluorescence intensity (a.u.). The result for “TGCTCTGTAGACAGGATACAATGGCACACCTGGTCCTACACGGAGTCACCTAGTGCAG” reads 28300 fluorescence intensity (a.u.); that for “TCTTGCGACGATCGTGTGGGGTGGGTTCGTGTGCTCTCTCCGGAGTCACCTAGTGCAG”, 6600 fluorescence intensity (a.u.). Take “AGCAATACTCATTTTCTAAATGCTTACATCATTCTGCGTTCGGAGTCACCTAGTGCAG”: the binding signal is 3770 fluorescence intensity (a.u.). The result for “ATTTTGGTCTCAGCAGTGCCACCGTGTCAGCAGGGGCAGCCGGAGTCACCTAGTGCAG” reads 7800 fluorescence intensity (a.u.); that for “CGATCGATCGATCATATCGCTAGCTAGCTTGCTTTAATTTCGGAGTCACCTAGTGCAG”, 17100 fluorescence intensity (a.u.). Regarding “TGGCAGACACCAATTTGCTGCACGTGTACATATCGACCCACGGAGTCACCTAGTGCAG”, the binding signal is 4210 fluorescence intensity (a.u.).

For the sequence “CTGTCCTTCTTCATCGCCAATGGCTGCCATGCCAACACCACGGAGTCACCTAGTGCAG”, the binding signal is 3370 fluorescence intensity (a.u.).

Regarding “TAAGTCTTCGTCCCATGTGGTAATGACATGACACTTACGTCGGAGTCACCTAGTGCAG”, the binding signal was 4340 fluorescence intensity (a.u.). To “GTTGCCCATCAACCAAGAGCTAGCACAGCACCGGTGGCAGCGGAGTCACCTAGTGCAG” belongs 3250 fluorescence intensity (a.u.). The result for “CCAGGTAGTCATCAGTCTGTCACGCCAAACGGGCAAGCAACGGAGTCACCTAGTGCAG” reads 3370 fluorescence intensity (a.u.). To “AAACACACACATGTACACACACACACTCTCTCTCTCTCTCCGGAGTCACCTAGTGCAG” belongs 4080 fluorescence intensity (a.u.); to “GCAAATATTCCTCTTGCCGTGTCACTGGCTTGCTCTGCTCCGGAGTCACCTAGTGCAG”, 5330 fluorescence intensity (a.u.). Consider “TACTGAAAATGAGTTGGCATCACTACATCACTGCGCCTCGCGGAGTCACCTAGTGCAG”, for which the binding signal is 7160 fluorescence intensity (a.u.). To “ACCCGCCGCGCCACACGTGTCCGCGACGCCGGCACGTGCCCGGAGTCACCTAGTGCAG” belongs 7160 fluorescence intensity (a.u.). The result for “TGATCTTTCTCTCCAAAGAATCGTGCTAGCTCGTTGGAAACGGAGTCACCTAGTGCAG” reads 18000 fluorescence intensity (a.u.). The result for “CACATGATCGATCGCATCAACTGACTCCCATCATCTCCGGCGGAGTCACCTAGTGCAG” reads 3440 fluorescence intensity (a.u.); that for “ATAGGAGAGCTACACGTGGCAGTTGACGAGACGGACACACCGGAGTCACCTAGTGCAG”, 8780 fluorescence intensity (a.u.). Consider “CAGCCATCACGGTCGCGCCAGCGACGCCACCGCCGCCCCACGGAGTCACCTAGTGCAG”, for which the binding signal is 3750 fluorescence intensity (a.u.). To “TCCATGTTAATTAATTTGATCAGTTGGACGCATATTTGCGCGGAGTCACCTAGTGCAG” belongs 3430 fluorescence intensity (a.u.); to “CAAATACTAAATGATTTCAAATGAAAACGTCATCAACAACCGGAGTCACCTAGTGCAG”, 3560 fluorescence intensity (a.u.).

Take “TCCACCCCGAAGCAGCAGCATCCACCGCCACGCAGAGAGCCGGAGTCACCTAGTGCAG”: the binding signal is 3270 fluorescence intensity (a.u.).

In the case of “GGCAGCGGCAGCAAACCAAGGGTAGAATAGTCTACCGGAACGGAGTCACCTAGTGCAG”, the binding signal is 34300 fluorescence intensity (a.u.).

As to “CGCGTAGATTGAAACTGGACAAGCAGTACATGTACAAAATCGGAGTCACCTAGTGCAG”, the binding signal is 3170 fluorescence intensity (a.u.).

On to “ACCTCCTACAACCAGTCCCGATGCAGGCAGAGGCAGCGCCCGGAGTCACCTAGTGCAG”, for which the binding signal was 35500 fluorescence intensity (a.u.).
